Measurements: the supplement of paper PMC11732987, “Enantioselective OTUD7B fragment discovery through chemoproteomics screening and high-throughput optimisation” (Communications Chemistry, 2025)
The list shows a part of the results. The data scatter; read single values as rough.

Sequences of proteins named here, by UniProt entry; tags and fusion partners are left off. A change or cut given only in a name is not applied to a line headed by its entry.
UniProt Q9Y243: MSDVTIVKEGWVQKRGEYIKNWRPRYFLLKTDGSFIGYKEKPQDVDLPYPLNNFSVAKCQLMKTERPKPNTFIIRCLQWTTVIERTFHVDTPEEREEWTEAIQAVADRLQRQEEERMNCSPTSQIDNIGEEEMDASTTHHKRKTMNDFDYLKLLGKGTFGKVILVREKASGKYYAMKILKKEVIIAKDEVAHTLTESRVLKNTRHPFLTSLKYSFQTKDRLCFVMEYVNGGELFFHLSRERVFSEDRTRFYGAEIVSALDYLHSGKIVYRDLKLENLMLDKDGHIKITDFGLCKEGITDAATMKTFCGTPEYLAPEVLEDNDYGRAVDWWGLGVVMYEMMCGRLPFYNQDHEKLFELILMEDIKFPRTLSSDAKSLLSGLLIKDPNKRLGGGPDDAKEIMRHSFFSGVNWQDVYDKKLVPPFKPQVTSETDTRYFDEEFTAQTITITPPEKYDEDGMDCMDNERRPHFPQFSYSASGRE

What follows are compounds tested against T1, AKT3 C119 (UniProt Q9Y243) (assay: log2 mean competition ratio of IA-DTB cysteine labelling (DMSO/compound) (log2 ratio); higher = stronger cysteine engagement by compound). Conditions: 50 µM; treatment time: 4 h; cell line lysate: HEK293T.
T1 sequence (whole entry): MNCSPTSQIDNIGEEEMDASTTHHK
Protocol: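 IA-DTB competitive cysteine chemoproteomics in HEK293T RIPA lysate. Lysates were treated with compound 29 or 30 at 50 or 200 µM for 4 h, then IA-DTB (500 µM, 1 h), trypsin-digested, NeutrAvidin-enriched and analysed by diaPASEF. Competition ratio = intensity DMSO / intensity compound (n=4 treated, n=64 DMSO); binding: mean log2 CR ≥ 1 and p ≤ 0.05 plus QC filters. Target is the cysteine site.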

| Compound | log2 mean competition ratio |
| --- | --- |
| O=C(CCl)N[C@@H]1CCCc2ccccc21 | -0.0569 |
| O=C(CCl)N[C@H]1CCCc2ccccc21 | 0.136 |

Same assay, conditions: 200 µM; treatment time: 4 h; cell line lysate: HEK293T

| Compound | log2 mean competition ratio |
| --- | --- |
| O=C(CCl)N[C@@H]1CCCc2ccccc21 | -0.256 |
| O=C(CCl)N[C@H]1CCCc2ccccc21 | -0.29 |
